From PubChem BioAssay AID1625 (Sanford-Burnham Center for Chemical Genomics, 2009)
Screen size: about 190,000 compounds; about 570 (0.3%) were called active. Inconclusive results, whose numbers are uncertain, are shown with a selection of clear calls.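 The calls were made as follows: active = z-score above 3 at 5 µM with at least 500 cells counted in the well; inconclusive = wells under 500 cells, flagged as cytotoxic or low count; inactive = the rest.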

assay: insulin promoter activators in MIN6 cells, imaging, high-content screening, mouse beta cells (AID 1625); conditions: MIN6 insulin promoter-GFP reporter, at 5 µM, active compounds read high

Row | SMILES | z-score
1 | Cc1cc(Cl)ccc1C(=O)C1CCCN(Cc2ccon2)C1 (stereo unspecified) | inactive: -0.16
2 | FC(F)(F)c1ccc2c(c1)N(CCCN1CCN(CCCl)CC1)c1ccccc1S2 | inconclusive: -2.06
3 | c1ccc2c(CN3CCCCCC3)c[nH]c2c1 | inactive: -2.71
4 | CCOc1ccc(-c2c(C)n(-c3ccc(OCC)cc3)c3[n+]2CCCCC3)cc1 | inconclusive: -4.31
5 | CCCCCCn1c(O)c(C=Nc2ccccc2N2CCOCC2)c(=O)[nH]c1=S | active: 3.25
6 | Cc1ccccc1NC1=NCC(C)S1 (stereo unspecified) | inconclusive: -1.17
7 | Cc1nc2cc(C(F)(F)F)ccc2n1C1CCN(Cc2nnnn2CCc2ccccc2)CC1 | inconclusive: -2.61
8 | CCN(CC)C1=NC(=[N+](CC)CC)c2ccccc21 | inconclusive: -1.17
9 | CCn1nc(-c2cccs2)nc2c(=O)n(C)c(=O)nc1-2 | inconclusive: -1.96
10 | O=C1NC(=O)N(CC2CCCO2)C(=O)/C1=C/c1cccs1 (stereo unspecified) | inactive: 0.41
11 | CCCCCCOc1ccc(CN2CCN(C)CC2)cc1 | inactive: -2.8
12 | Nc1cc2nc3ccccc3nc2cc1N | active: 3.68
13 | Nc1c([N+](=O)[O-])cc(F)c(N2CCNCC2)c1Br | inconclusive: -3.23
14 | N=c1c2c(n(Cc3ccc(Cl)cc3Cl)c3c1CCC3)CCCC2 | inconclusive: -7.46
15 | O=C1/C(=C/c2ccc3c(c2)OCO3)N2CCC1CC2 | inactive: 0
16 | COc1cc2c(cc1OC)[C@@H]1C(=O)c3ccc4c(c3O[C@@H]1CO2)C[C@H](C(C)C)O4 | inconclusive: -2.37
17 | CCn1nc(-c2ccccc2)nc2c(=O)n(C)c(=O)nc1-2 | inconclusive: -1.49
18 | COC(=O)C(O)(c1ccc(N(C)C(=O)c2ccc(Cl)c(Cl)c2)cc1)C(F)(F)F (stereo unspecified) | inactive: -0.09
19 | Cc1ccc(-n2cc(CNC(C)Cc3cnccn3)c(-c3cccc(C)c3)n2)cc1 (stereo unspecified) | inactive: 0.36
20 | CCOC(=O)C1C(=O)NC2(C)CC1c1cc(OC)ccc1O2 (stereo unspecified) | inconclusive: -0.27
21 | CCCCCCCCCOc1ccc2[nH]cc(CCN)c2c1 | inconclusive: -0.51
22 | CN(C)c1ccc(-[n+]2c(-c3ccccc3)cc(-c3ccccc3)cc2-c2ccccc2)cc1 | inconclusive: -4.41
23 | CN1/C(=C\C=C\C2=[N+](C)c3ccc4ccccc4c3C2(C)C)C(C)(C)c2ccccc21 | inconclusive: -6.15
24 | CC(=O)OC[C@]12CCC(C)=C[C@H]1O[C@@H]1[C@H](O)[C@@H](OC(C)=O)[C@@]2(C)[C@]12CO2 | inconclusive: -5.93
25 | COc1ccc(CC(=O)N2CCN(C)CC2)cc1 | active: 3.53
26 | COc1ccc2[nH]cc(CCN(C)C)c2c1 | inactive: 0.59

A draw from above in order of formula weight, smallest number first.
Row | SMILES | z-score
24 | CC(=O)OC[C@]12CCC(C)=C[C@H]1O[C@@H]1[C@H](O)[C@@H](OC(C)=O)[C@@]2(C)[C@]12CO2 | inconclusive: -5.93
16 | COc1cc2c(cc1OC)[C@@H]1C(=O)c3ccc4c(c3O[C@@H]1CO2)C[C@H](C(C)C)O4 | inconclusive: -2.37
19 | Cc1ccc(-n2cc(CNC(C)Cc3cnccn3)c(-c3cccc(C)c3)n2)cc1 (stereo unspecified) | inactive: 0.36

Going on with the list.

Row | SMILES | z-score
27 | CCC(=O)N1CC(=O)Nc2ccc(Br)cc2C1c1ccccc1 (stereo unspecified) | inactive: 0.55
28 | CN=C(SCc1cc2c(cc1Cl)OCO2)c1c(O)n(C)c(=O)n(C)c1=O | inconclusive: -1.62
29 | Cc1nc2nc(SCC(=O)N3CCC4(CC3)OCCO4)nn2c(C)c1Cc1ccccc1 | inconclusive: -0.69
30 | CC1=CC(=Cc2sc3ccccc3[n+]2C)C=C(C)O1 | inconclusive: 0.61
31 | Cc1cc(OC(=O)c2ccco2)c2c3c(c(=O)oc2c1)CCCC3 | inconclusive: -2.03
32 | C[C@H]1C[C@@H](C)C(=O)[C@@H]([C@H](O)CC2CC(=O)NC(=O)C2)C1 | inconclusive: -6.32
33 | CN(C)c1ccc(/C=C/c2cc[n+](C)c3ccccc23)cc1 | inconclusive: -5.88
34 | CN1C2CCC1/C(=C/c1ccccn1)C(=O)/C2=C\c1ccccn1 | inconclusive: -2.06
35 | CC(=O)OC(C)(C)/C=C/C(=O)[C@](C)(O)[C@H]1[C@H](O)C[C@@]2(C)[C@@H]3CC=C4[C@H](C[C@H](O)C(=O)C4(C)C)[C@]3(C)C(=O)C[C@]12C | inactive: -4.32
36 | CCc1ccccc1N1C(=O)/C(=C/c2ccc(N3CCN(C)CC3)o2)C(=O)NC1=S | active: 3.37
37 | Clc1ccc2c(c1)C(OC1CN3CCC1CC3)c1ccccc1CS2 (stereo unspecified) | inconclusive: -0.84
38 | CC1(C)CN=C(Nc2ccc(F)c(F)c2)S1 | inconclusive: -2.61
39 | O=C1C2CCCN2C(c2cccnc2)N1c1ccc(Cl)c(Cl)c1 (stereo unspecified) | inactive: -0.26
40 | CCOc1cccc(=NC2CCCCC2)c2c(C)n(C)c(C)c12 | inconclusive: -4.06
41 | CCCCn1c(NC(=O)c2ccco2)c(C(=O)OCC)c2nc3ccccc3nc21 | inactive: -0.19
42 | C/C(CC(c1ccccc1)c1c(O)c2ccccc2oc1=O)=N\Nc1ccc([N+](=O)[O-])cc1[N+](=O)[O-] (stereo unspecified) | inactive: -0.58
43 | O=C1OC(c2ccc(Cl)cc2)=N/C1=C\N1CC2CC(C1)c1cccc(=O)n1C2 (stereo unspecified) | inactive: -0.65
44 | CC1(C)C[C@H]2C=C(C=O)[C@]3(C=O)C[C@]3(C)[C@H]2C1 | inconclusive: -0.09
45 | COc1cc([C@@H]2c3cc4c(cc3[C@@H](OC)[C@H]3COC(=O)[C@H]23)OCO4)cc(OC)c1O | inconclusive: 0.93
46 | O=c1[nH]c(=O)n(-c2ccc(F)cc2)c(O)c1C=Nc1ccccc1N1CCCC1 | active: 4.37
47 | CCOc1ccc(-c2cc(C)[n+](CCO)c(-c3ccc(OCC)cc3)c2)cc1 | inconclusive: -2.57
48 | CN1CCN(c2ccc([N+](=O)[O-])c3no[n+]([O-])c23)CC1 | inconclusive: -2.69
49 | CCOC(=O)c1c(C)n(Cc2ccccc2)c2ccc(OCC(O)Cn3nc(C)cc3C)cc12 (stereo unspecified) | inconclusive: -2.03
50 | CCC(=NCc1ccc(F)cc1)c1c(O)n(C)c(=O)n(C)c1=O | inconclusive: -1.15
51 | c1ccc2c(N3CCNCC3)nsc2c1 | active: 3.06
52 | CCOc1cccc(=NC2CCCCC2)c2c(C)[nH]c(C)c12 | inconclusive: -3.33

Row | SMILES | z-score
53 | O=C1NC(=S)NC(=O)C1=Cc1cccc2cc3ccccc3cc12 | inconclusive: -1.48
54 | CC[n+]1c(/C=C/C=C/c2ccc(N(C)C)cc2)sc2ccccc21 | inconclusive: -1.36
55 | CC(C)Sc1nnc(OC(=O)N(C)C)n1-c1ccccc1 | inactive: -0.12
56 | O=C(c1ccccc1)C(CN1CCCC1)c1ccccc1 (stereo unspecified) | inconclusive: -2.42
57 | Cc1ccc(-c2cc(-c3ccc(C)cc3)[n+](C)o2)cc1 | inconclusive: -3.4
58 | COC(=O)C[C@]1(C(=O)OC)CN(C#N)N(c2ccc(Cl)cc2)C12c1ccccc1-c1ccccc12 | inconclusive: -1.67
59 | C=C(C=O)CC1CC(O)[C@]2(C)OC3CC4OC5C[C@]6(C)O[C@]7(C)CCC8OC9C[C@]%10(C)OC%11C(C)=CC(=O)OC%11CC%10OC9C[C@@H](C)C8OC7CC6O[C@]5(C)CC5OC5C4OC3CC2O1 (stereo partly specified) | inconclusive: -2.63
60 | CC1CCC(C(C)C)C(OC(=O)Cn2c(COc3ccccc3)[n+](C)c3ccccc32)C1 (stereo unspecified) | inconclusive: -4.56
61 | CCN1/C(=C\C=C\C2=[N+](CC)c3ccccc3C2(C)C)C(C)(C)c2ccccc21 | inconclusive: 4.45
62 | COc1ccc(Cn2c(N)c(C(=O)NCc3ccco3)c3nc4ccccc4nc32)cc1OC | inactive: -1.68
63 | CCCCCCCn1c(=O)c(C(=O)Nc2cnccn2)c(O)c2ccccc21 | inconclusive: -6.07
64 | Cn1ncnc2c(=O)n(C)c(=O)nc1-2 | inconclusive: -2.1
65 | C=CC[N+]1(C)C2CCC1CC(O)C2 (stereo unspecified) | inactive: 0.09
66 | CN(C)C(=S)SSC(=S)N(C)C | inconclusive: -4.28
67 | Cc1ccc(C(=O)N[C@@H](C)CN2C3=NC[C@H](Cc4ccccc4)N3C[C@H]2Cc2ccc(O)cc2)cc1Br | inconclusive: -4.9
68 | CC1CCC/C=C/C2CC(O)CC2C(O)/C=C/C(=O)O1 (stereo unspecified) | inconclusive: -5.32
69 | Cc1nc2c(=O)n(C)c(=O)nc-2n(C)n1 | inconclusive: -1.08
70 | O=C1C(=O)c2ccccc2-c2ccccc21 | inconclusive: -4.06
71 | CN(C)c1ccc(/C=C/C=C/c2sc3ccccc3[n+]2C)cc1 | inconclusive: -0.69
72 | COc1cc2c3c(c1OC)-c1cc(O)ccc1CC3NCC2 (stereo unspecified) | inactive: -0.55
73 | CC/C(=C\C=C\[C@@H]1C=C[C@@H]2CCC[C@H]2[C@@H]1C(=O)c1ccc[nH]1)[C@@H]1O[C@@H]([C@@H](C)C(=O)O)CC[C@@H]1C | inconclusive: -1.93
74 | O=C(CSC1c2ccccc2-c2ccccc21)N/N=C/c1ccccc1O | inactive: -2.77
75 | Cc1cc(C)n2c(Br)c(CN3CC4CC(C3)c3cccc(=O)n3C4)nc2n1 (stereo unspecified) | inactive: -0.18
76 | CCCCCCCCCCCCn1ccc(=N)cc1 | inconclusive: -4.66
